# Some of the results follow. Small differences around the control level are noise.
# Sequences of proteins named here, by UniProt entry; tags and fusion partners are left off. A change or cut given only in a name is not applied to a line headed by its entry.
# UniProt Q8BM72: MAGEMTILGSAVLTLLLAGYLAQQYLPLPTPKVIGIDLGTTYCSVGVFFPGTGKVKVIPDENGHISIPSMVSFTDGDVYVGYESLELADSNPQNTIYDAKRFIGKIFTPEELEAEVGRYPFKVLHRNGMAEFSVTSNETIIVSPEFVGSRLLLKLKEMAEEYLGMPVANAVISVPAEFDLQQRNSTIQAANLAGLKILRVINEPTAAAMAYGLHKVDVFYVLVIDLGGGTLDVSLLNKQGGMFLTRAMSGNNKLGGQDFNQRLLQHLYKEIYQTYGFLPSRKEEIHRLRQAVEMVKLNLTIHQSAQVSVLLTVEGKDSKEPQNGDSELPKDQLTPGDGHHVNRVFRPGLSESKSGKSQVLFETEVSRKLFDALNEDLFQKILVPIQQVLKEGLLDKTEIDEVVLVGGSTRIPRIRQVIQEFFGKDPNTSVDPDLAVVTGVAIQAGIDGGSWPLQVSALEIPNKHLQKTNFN
# UniProt Q8BIK4: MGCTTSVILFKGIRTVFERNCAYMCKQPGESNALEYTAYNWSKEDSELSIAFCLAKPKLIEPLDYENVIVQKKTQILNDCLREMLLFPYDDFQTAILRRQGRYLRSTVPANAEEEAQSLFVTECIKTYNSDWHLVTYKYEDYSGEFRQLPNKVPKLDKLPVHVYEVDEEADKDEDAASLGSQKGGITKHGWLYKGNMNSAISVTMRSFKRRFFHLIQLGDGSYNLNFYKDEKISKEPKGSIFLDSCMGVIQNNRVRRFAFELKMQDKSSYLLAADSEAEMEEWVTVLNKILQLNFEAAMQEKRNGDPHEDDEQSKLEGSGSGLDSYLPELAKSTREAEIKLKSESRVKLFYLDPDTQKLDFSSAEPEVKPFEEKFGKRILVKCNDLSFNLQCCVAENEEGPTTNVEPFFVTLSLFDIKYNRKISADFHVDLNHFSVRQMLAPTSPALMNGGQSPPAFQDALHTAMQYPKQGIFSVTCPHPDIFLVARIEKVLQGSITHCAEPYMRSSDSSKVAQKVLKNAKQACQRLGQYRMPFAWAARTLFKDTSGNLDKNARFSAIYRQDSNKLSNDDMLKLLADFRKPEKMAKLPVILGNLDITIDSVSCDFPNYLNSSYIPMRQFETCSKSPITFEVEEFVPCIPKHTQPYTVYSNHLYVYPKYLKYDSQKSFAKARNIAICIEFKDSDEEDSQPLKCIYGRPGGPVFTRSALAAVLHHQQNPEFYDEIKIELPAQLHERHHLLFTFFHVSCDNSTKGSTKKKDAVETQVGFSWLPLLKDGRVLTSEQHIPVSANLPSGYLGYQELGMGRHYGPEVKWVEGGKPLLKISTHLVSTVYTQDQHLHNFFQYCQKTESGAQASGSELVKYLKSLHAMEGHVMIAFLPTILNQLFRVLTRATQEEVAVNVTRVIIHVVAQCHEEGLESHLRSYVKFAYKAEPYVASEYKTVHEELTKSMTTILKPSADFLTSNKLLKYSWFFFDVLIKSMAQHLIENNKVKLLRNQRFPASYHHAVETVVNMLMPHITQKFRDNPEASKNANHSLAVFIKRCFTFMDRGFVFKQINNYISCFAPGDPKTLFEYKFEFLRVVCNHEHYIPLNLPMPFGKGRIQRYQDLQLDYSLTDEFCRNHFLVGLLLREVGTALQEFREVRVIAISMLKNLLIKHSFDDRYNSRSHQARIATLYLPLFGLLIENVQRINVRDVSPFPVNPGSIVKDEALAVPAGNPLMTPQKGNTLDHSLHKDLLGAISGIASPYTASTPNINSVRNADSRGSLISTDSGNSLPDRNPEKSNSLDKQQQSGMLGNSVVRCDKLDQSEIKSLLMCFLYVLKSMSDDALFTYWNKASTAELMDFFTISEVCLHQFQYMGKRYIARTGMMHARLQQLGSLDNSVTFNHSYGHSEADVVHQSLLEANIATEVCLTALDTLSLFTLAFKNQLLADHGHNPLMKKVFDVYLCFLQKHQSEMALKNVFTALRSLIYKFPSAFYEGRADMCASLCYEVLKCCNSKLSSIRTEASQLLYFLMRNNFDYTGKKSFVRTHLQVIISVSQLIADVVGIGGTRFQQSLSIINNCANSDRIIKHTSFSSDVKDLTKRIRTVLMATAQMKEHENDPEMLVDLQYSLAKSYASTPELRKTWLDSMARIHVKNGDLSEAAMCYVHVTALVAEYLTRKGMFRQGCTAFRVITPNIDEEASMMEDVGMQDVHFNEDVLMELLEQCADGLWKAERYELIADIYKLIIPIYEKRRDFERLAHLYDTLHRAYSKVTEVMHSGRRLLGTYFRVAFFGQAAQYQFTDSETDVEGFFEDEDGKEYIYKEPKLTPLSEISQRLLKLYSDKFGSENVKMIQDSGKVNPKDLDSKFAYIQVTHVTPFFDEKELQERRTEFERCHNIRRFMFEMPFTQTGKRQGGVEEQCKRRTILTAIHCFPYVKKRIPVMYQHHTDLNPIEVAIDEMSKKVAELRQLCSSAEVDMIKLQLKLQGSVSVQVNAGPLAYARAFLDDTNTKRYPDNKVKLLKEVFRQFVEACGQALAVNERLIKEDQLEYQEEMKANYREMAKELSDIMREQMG
# UniProt Q8BJ90: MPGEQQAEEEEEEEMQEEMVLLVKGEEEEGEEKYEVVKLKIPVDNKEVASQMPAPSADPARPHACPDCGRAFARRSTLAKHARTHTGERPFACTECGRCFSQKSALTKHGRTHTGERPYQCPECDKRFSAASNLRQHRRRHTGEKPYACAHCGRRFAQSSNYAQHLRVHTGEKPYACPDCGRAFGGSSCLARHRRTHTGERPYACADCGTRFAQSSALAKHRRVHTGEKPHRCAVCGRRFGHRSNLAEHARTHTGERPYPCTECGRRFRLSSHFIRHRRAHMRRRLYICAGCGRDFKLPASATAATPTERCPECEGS
# UniProt Q8BKX1: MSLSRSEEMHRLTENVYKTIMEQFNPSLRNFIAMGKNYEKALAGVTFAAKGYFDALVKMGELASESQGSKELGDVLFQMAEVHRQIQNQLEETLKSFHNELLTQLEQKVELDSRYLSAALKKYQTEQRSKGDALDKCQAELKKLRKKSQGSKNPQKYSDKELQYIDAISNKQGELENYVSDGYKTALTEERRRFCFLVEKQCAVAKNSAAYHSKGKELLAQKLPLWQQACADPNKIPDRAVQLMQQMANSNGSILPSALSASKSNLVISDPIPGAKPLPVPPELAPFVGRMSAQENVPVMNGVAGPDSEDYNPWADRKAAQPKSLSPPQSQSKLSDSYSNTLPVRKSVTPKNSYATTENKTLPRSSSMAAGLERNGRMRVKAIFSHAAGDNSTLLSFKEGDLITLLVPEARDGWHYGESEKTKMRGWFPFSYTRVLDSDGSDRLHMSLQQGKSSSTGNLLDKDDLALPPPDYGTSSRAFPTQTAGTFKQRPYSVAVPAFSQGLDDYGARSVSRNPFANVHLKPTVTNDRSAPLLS
# UniProt Q8BM85: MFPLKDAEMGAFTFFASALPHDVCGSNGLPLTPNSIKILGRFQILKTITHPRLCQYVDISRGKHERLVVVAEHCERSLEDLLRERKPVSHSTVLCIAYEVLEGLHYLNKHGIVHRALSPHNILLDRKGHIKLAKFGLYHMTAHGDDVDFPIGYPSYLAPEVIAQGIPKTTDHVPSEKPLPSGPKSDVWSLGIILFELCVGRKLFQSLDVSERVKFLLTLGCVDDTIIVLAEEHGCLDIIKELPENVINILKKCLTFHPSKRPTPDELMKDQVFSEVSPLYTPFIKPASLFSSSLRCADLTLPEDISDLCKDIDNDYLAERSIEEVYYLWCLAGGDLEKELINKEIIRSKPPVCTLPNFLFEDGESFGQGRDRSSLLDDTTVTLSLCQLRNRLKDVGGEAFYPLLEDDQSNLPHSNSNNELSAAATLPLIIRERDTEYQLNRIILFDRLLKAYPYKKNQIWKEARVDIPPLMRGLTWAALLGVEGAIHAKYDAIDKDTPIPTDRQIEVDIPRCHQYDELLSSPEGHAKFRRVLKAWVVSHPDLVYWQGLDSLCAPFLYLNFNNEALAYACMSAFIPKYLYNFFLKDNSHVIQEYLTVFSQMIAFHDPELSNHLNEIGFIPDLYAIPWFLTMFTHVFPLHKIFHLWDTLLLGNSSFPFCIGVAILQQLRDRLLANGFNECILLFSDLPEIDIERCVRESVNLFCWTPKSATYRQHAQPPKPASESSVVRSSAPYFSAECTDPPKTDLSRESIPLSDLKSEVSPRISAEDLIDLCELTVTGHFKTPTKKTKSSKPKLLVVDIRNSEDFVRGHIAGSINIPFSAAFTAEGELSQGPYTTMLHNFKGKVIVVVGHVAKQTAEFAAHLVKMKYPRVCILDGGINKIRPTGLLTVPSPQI
# UniProt Q8BQS4: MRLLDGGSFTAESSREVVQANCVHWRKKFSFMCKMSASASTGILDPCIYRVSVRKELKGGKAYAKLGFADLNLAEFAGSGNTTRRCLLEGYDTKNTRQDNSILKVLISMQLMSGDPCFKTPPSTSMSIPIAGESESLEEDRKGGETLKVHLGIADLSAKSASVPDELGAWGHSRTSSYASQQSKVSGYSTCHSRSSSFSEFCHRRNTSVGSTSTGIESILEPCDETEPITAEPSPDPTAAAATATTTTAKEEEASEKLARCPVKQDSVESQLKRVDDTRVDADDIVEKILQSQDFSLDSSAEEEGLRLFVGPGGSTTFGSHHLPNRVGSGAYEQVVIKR
# UniProt Q8BLY1: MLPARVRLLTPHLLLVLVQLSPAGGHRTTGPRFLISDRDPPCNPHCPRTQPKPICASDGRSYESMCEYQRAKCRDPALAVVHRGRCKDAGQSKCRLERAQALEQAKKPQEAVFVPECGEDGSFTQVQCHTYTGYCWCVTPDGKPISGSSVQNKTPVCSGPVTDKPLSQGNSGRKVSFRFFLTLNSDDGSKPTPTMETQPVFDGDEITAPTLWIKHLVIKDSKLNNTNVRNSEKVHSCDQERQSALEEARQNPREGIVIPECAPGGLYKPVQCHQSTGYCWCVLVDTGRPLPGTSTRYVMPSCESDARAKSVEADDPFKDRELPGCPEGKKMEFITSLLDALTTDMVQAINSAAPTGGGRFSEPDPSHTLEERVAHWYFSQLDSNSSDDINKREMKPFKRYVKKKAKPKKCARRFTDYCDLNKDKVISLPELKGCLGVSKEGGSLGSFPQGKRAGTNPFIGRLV
# UniProt Q8BTV2: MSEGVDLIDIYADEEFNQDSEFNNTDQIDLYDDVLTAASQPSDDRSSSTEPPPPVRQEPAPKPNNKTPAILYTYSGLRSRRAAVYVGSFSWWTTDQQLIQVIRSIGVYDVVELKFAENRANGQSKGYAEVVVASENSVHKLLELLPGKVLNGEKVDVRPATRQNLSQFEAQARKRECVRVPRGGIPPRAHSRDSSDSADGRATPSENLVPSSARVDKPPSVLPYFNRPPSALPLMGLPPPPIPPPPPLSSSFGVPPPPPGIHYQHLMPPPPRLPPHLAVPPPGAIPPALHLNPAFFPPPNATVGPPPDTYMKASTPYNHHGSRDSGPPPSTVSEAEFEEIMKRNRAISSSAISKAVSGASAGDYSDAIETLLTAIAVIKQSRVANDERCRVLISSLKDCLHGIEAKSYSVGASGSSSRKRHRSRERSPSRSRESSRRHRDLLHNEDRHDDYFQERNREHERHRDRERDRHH
# UniProt Q8BNV1: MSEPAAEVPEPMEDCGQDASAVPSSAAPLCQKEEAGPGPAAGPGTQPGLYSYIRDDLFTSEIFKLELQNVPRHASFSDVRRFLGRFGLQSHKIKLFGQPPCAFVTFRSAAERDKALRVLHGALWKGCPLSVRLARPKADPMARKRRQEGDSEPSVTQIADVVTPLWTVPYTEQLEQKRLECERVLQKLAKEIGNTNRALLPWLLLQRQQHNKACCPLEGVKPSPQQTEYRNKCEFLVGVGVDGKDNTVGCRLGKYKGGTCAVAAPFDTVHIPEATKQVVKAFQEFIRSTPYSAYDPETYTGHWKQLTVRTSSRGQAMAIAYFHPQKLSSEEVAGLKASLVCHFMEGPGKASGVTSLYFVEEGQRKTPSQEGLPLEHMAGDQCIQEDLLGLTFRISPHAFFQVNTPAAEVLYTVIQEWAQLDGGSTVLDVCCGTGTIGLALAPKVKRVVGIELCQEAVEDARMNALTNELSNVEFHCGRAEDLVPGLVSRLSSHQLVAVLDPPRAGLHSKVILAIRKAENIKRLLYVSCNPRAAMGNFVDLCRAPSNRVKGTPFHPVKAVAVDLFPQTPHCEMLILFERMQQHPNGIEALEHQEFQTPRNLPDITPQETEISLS
# UniProt Q8BQ89: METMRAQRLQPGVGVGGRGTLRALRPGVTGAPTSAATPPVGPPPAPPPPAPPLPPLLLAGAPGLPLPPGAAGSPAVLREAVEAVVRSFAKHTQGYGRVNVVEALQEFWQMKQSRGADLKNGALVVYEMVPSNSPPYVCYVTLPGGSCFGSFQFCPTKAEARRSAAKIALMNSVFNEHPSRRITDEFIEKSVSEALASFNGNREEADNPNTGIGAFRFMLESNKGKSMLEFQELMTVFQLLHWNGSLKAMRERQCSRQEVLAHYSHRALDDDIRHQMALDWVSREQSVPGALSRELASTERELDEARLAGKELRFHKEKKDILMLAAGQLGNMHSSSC
# Compound: CN[C@@H]1C[C@H]2O[C@@](C)([C@@H]1OC)n1c3ccccc3c3c4c(c5c6ccccc6n2c5c31)C(=O)NC4 [staurosporine]
# Assay: log2 fold change of tryptic peptide abundance, ligand vs vehicle (limited proteolysis) (log2 ratio); higher = more trypsin-susceptible (destabilized)
# Conditions: ligand concentration: 20 uM; sample: mouse liver crude lysate; replicate design: treated separately
row,Target,log2 fold change
1,"UniProt Q8BKX6 (peptide sequence: SHLMELGLTAAK, peptide start residue: 1417)",0.327
2,"UniProt Q8BML9 (peptide sequence: LASGQPVGLR, peptide start residue: 630)",-0.862
3,"UniProt Q8BM72 (peptide sequence: EPQNGDSELPKDQLTPGDGHHVNR, peptide start residue: 320)",0.231
4,"UniProt Q8BQU3 (peptide sequence: TVGPGEAQR, peptide start residue: 44)",-0.139
5,"UniProt Q8BLH7 (peptide sequence: TLDSEEEQPR, peptide start residue: 572)",0.132
6,"UniProt Q8BK35 (peptide sequence: LFFVDTGFK, peptide start residue: 86)",-0.706
7,"UniProt Q8BMS1 (peptide sequence: GLYPAPLKIIDAVK, peptide start residue: 296)",0.3
8,"UniProt Q8BIK4 (peptide sequence: HSFDDRYNSR, peptide start residue: 1156)",0.391
9,"UniProt Q8BMI0 (peptide sequence: CSDEERPSTSR, peptide start residue: 797)",-0.379
10,"UniProt Q8BU30 (peptide sequence: FFIQNVFR, peptide start residue: 662)",0.464
11,"UniProt Q8BTI7 (peptide sequence: SPLHMAAIHGR, peptide start residue: 308)",0.701
12,"UniProt Q8BL99 (peptide sequence: SSFARSFDR, peptide start residue: 945)",-0.334
13,"UniProt Q8BTZ4 (peptide sequence: YAALNLAALHCR, peptide start residue: 287)",0.274
14,"UniProt Q8BTF7 (peptide sequence: LILPQLER, peptide start residue: 70)",0.384
15,"UniProt Q8BSV3 (peptide sequence: ETQPIYLGDESMEIKK, peptide start residue: 42)",0.122
16,"UniProt Q8BR07 (peptide sequence: VMLDYYR, peptide start residue: 554)",0.169
17,"UniProt Q8BUV3 (peptide sequence: GKTLIINLPGSKK, peptide start residue: 137)",-1.04
18,"UniProt Q8BM55 (peptide sequence: VLAFGAKPESSLHTYFPSFLSR, peptide start residue: 351)",0.415

# As a short view, some entries already given.
row,Target,log2 fold change
1,"UniProt Q8BKX6 (peptide sequence: SHLMELGLTAAK, peptide start residue: 1417)",0.327
2,"UniProt Q8BML9 (peptide sequence: LASGQPVGLR, peptide start residue: 630)",-0.862

# (next part)

row,Target,log2 fold change
1,"UniProt Q8BJ90 (peptide sequence: THTGERPYACADCGTR, peptide start residue: 196)",-0.179
2,"UniProt Q8BKX1 (peptide sequence: VLDSDGSDRLHMSLQQGK, peptide start residue: 435)",-0.346
3,"UniProt Q8BKE6 (peptide sequence: SLLGYQSGGGSAGEDHVRR, peptide start residue: 106)",-0.364
4,"UniProt Q8BP27 (peptide sequence: SSSHSFCSVVK, peptide start residue: 139)",0.268
5,"UniProt Q8BM85 (peptide sequence: CHQYDELLSSPEGHAK, peptide start residue: 512)",-0.48
6,"UniProt Q8BQS4 (peptide sequence: VHLGIADLSAK, peptide start residue: 149)",0.238
7,"UniProt Q8BTG3 (peptide sequence: INAVELAEGSLEKR, peptide start residue: 90)",-0.0376
8,"UniProt Q8BLY1 (peptide sequence: EMKPFKR, peptide start residue: 393)",-0.374
9,"UniProt Q8BTV2 (peptide sequence: HRDLLHNEDRHDDYFQER, peptide start residue: 438)",-0.852
10,"UniProt Q8BSP2 (peptide sequence: TSQQSAILPR, peptide start residue: 276)",-0.17
11,"UniProt Q8BNV1 (peptide sequence: ASLVCHFMEGPGK, peptide start residue: 337)",-0.151
12,"UniProt Q8BS39 (peptide sequence: IKGLNEEVTSK, peptide start residue: 88)",0.207
13,"UniProt Q8BK75 (peptide sequence: AQSLTYQYK, peptide start residue: 240)",0.0621
14,"UniProt Q8BV49 (peptide sequence: MQDQYDR, peptide start residue: 38)",0.151
15,"UniProt Q8BIF9 (peptide sequence: IHTGEKPYTCPDCGR, peptide start residue: 143)",0.251
16,"UniProt Q8BJ64 (peptide sequence: AADIIKGHPALEDK, peptide start residue: 569)",-0.485
17,"UniProt Q8BQ89 (peptide sequence: EAVEAVVR, peptide start residue: 79)",0.199
